Laboratory results published in publication PMC12085317.
Results are given in words; binding and its absence hold for the method and conditions named. In cells and extracts the contact can be indirect. Some entries that bind do so weakly or less than the wild type.

Target: T1, CSTF2 (human (endogenous in MCF7)) (UniProt P33240)
T1 sequence: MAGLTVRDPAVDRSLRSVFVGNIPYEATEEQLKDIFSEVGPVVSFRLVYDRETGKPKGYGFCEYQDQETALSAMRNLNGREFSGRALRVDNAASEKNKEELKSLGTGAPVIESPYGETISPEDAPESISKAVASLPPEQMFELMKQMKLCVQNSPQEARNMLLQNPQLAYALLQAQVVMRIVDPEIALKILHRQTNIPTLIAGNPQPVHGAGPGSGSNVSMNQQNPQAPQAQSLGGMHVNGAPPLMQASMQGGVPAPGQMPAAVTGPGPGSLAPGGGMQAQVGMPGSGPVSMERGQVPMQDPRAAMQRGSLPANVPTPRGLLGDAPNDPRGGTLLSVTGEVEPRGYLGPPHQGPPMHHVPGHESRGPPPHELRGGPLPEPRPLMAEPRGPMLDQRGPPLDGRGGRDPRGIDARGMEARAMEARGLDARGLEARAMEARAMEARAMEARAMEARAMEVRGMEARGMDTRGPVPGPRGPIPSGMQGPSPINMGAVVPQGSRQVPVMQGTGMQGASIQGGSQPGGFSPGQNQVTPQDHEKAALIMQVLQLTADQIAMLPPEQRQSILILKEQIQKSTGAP
Assay: co-IP; untransfected MCF7 cells, nuclear extracts (500 µg), immunoprecipitation with CSTF2 antibody or isotype-matched IgG on Protein A/G magnetic beads, immunoblot with CSTF2 and ADAR1 antibodies

B1: ADAR1 (protein, UniProt P55265 1-1226)
chain: MNPRQGYSLSGYYTHPFQGYEHRQLRYQQPGPGSSPSSFLLKQIEFLKGQLPEAPVIGKQTPSLPPSLPGLRPRFPVLLASSTRGRQVDIRGVPRGVHLRSQGLQRGFQHPSPRGRSLPQRGVDCLSSHFQELSIYQDQEQRILKFLEELGEGKATTAHDLSGKLGTPKKEINRVLYSLAKKGKLQKEAGTPPLWKIAVSTQAWNQHSGVVRPDGHSQGAPNSDPSLEPEDRNSTSVSEDLLEPFIAVSAQAWNQHSGVVRPDSHSQGSPNSDPGLEPEDSNSTSALEDPLEFLDMAEIKEKICDYLFNVSDSSALNLAKNIGLTKARDINAVLIDMERQGDVYRQGTTPPIWHLTDKKRERMQIKRNTNSVPETAPAAIPETKRNAEFLTCNIPTSNASNNMVTTEKVENGQEPVIKLENRQEARPEPARLKPPVHYNGPSKAGYVDFENGQWATDDIPDDLNSIRAAPGEFRAIMEMPSFYSHGLPRCSPYKKLTECQLKNPISGLLEYAQFASQTCEFNMIEQSGPPHEPRFKFQVVINGREFPPAEAGSKKVAKQDAAMKAMTILLEEAKAKDSGKSEESSHYSTEKESEKTAESQTPTPSATSFFSGKSPVTTLLECMHKLGNSCEFRLLSKEGPAHEPKFQYCVAVGAQTFPSVSAPSKKVAKQMAAEEAMKALHGEATNSMASDNQPEGMISESLDNLESMMPNKVRKIGELVRYLNTNPVGGLLEYARSHGFAAEFKLVDQSGPPHEPKFVYQAKVGGRWFPAVCAHSKKQGKQEAADAALRVLIGENEKAERMGFTEVTPVTGASLRRTMLLLSRSPEAQPKTLPLTGSTFHDQIAMLSHRCFNTLTNSFQPSLLGRKILAAIIMKKDSEDMGVVVSLGTGNRCVKGDSLSLKGETVNDCHAEIISRRGFIRFLYSELMKYNSQTAKDSIFEPAKGGEKLQIKKTVSFHLYISTAPCGDGALFDKSCSDRAMESTESRHYPVFENPKQGKLRTKVENGEGTIPVESSDIVPTWDGIRLGERLRTMSCSDKILRWNVLGLQGALLTHFLQPIYLKSVTLGYLFSQGHLTRAICCRVTRDGSAFEDGLRHPFIVNHPKVGRVSIYDSKRQSGKTKETSVNWCLADGYDLEILDGTRGTVDGPRNELSRVSKKNIFLLFKKLCSFRYRRDLLRLSYGEAKKAARDYETAKNYFKKGLKDMGYGNWISKPQEEKNFYLCPV
Question: Which binding does the source give for B1 here?
Answer: Its binding is “binds”.
